{
  "sequences": {"note": "By UniProt entry, the sequences of proteins in these tests, tags left out. Where a name states a change or a piece, a line headed by the entry shows the natural chain unless it says otherwise.", "UniProt Q01371": "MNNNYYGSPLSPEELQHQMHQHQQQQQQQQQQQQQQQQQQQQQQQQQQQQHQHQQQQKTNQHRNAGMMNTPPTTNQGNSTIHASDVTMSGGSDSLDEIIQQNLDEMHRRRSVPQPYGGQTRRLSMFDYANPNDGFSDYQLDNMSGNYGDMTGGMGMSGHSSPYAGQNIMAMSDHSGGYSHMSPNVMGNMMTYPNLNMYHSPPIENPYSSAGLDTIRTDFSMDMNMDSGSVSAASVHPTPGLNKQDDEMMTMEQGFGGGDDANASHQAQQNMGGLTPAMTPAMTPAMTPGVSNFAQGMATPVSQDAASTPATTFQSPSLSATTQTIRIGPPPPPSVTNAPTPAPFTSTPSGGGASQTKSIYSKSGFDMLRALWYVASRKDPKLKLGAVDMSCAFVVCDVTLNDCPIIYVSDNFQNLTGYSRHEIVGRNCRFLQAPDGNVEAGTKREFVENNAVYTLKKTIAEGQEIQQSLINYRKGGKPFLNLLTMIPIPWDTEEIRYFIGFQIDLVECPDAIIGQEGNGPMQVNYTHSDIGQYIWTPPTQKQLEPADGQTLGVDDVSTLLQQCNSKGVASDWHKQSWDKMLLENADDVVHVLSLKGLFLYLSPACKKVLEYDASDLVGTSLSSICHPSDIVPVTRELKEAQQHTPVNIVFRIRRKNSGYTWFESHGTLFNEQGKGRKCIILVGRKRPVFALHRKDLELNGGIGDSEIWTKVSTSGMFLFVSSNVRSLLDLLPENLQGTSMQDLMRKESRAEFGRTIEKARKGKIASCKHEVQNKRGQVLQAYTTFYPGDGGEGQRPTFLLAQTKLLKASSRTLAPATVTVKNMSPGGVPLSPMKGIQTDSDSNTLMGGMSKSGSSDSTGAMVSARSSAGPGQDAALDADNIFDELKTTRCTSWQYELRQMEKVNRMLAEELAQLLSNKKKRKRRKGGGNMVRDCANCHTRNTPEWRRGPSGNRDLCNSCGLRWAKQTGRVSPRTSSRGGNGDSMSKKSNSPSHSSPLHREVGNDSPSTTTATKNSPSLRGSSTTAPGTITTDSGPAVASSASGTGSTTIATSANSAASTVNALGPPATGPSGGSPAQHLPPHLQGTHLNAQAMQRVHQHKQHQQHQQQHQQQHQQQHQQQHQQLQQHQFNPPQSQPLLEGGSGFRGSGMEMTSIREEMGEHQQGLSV", "UniProt U9W3H0": "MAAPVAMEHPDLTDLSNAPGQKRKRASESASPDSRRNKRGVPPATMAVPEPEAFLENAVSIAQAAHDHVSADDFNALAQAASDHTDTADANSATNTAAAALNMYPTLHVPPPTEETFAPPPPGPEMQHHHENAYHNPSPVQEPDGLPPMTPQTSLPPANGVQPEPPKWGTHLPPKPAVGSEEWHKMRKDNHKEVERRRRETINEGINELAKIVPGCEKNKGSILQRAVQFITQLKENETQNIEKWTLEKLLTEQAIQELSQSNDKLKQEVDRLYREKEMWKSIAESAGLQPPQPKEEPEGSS"},
  "source": "paper PMC6152987",
  "key": {"[1]": {"target": "T1, WHITE COLLAR 2 (WC-2) (Neurospora crassa) (UniProt P78714)", "T1 sequence": "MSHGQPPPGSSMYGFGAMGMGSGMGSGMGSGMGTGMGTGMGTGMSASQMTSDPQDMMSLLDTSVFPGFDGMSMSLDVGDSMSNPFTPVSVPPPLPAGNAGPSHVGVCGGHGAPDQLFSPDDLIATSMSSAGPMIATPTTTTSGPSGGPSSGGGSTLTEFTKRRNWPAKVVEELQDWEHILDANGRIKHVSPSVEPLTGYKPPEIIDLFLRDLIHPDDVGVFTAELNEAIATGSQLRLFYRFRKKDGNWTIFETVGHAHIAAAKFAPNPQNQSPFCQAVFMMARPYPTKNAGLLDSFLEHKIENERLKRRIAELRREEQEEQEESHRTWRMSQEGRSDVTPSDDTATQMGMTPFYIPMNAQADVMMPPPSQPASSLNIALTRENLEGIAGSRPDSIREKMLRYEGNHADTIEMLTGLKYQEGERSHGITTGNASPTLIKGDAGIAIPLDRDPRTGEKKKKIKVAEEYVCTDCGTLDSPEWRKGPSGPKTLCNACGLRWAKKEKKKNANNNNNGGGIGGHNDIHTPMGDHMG", "experiment": "co-IP; immunoprecipitation from N. crassa protein extracts with WC-1 antiserum or WC-2 antiserum; pre-immune serum as the negative control; 'in vivo'"}, "[2]": {"target": "WHITE COLLAR 1 (WC-1) (Neurospora crassa) (UniProt Q01371)", "experiment": "co-IP; immunoprecipitation from N. crassa protein extracts with WC-1 antiserum or WC-2 antiserum; pre-immune serum as the negative control; 'in vivo'"}},
  "note": "These are yes or no findings as the source states them, for the method shown. In cells and extracts the contact can be indirect. Binding calls can cover weak binding; strength is not graded here.",
  "data": [
    {"substance": "Centromere Binding Factor 1 (CBF-1) (from UniProt U9W3H0)", "values": [
      {"measurement": "binding", "setting": "[1]", "result": "binds"},
      {"measurement": "binding", "setting": "[2]", "result": "binds"}
    ]}
  ]
}
